PubChem BioAssay AID720505 | Drosophila RNAi Screening Center – 2013
The screen tested about 20,000 reagents; shown is an unselected part of those with a known target gene and a result. In the full data, about 2,100 (10%) got an active call. 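Raw plate signals without normalisation; calls rest on control-based scores that were not deposited; replicate 2 separates called from uncalled poorly.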 Unmarked entries are inactive. A plus sign joins genes that one reagent is predicted to hit. The record does not give: the amount of reagent, the time to read-out.

Aim: 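Genes needed for store-operated calcium entry in fly cells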 (primary screen)
System: Drosophila S2R+ cells
Knock-down reagent: long dsRNA against Drosophila genes
Treatment: thapsigargin (2 µM) in calcium-free buffer to empty internal stores, then 2 mM calcium added back
Detection: 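Fluo-4 signal in 384-well plates read on a FLIPR after thapsigargin (2 µM, calcium-free) store depletion and 2 mM calcium add-back; unnormalised mean endpoint per well; screen run twice, selected wells retested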
Reading the numbers: calcium signal and retest calcium signal: higher = more calcium entry after store depletion
Rule for the call: 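About 1500 genes called as lowering calcium entry, by varying amounts, judged against per-plate control wells with STIM1 as positive and Rho1 as negative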
Calls: active = called as lowering calcium entry; inactive = not called

The first 3 entries, ahead of the listing:
Target gene	DRSC id	calcium signal, replicate 1	calcium signal, replicate 2	retest calcium signal, replicate 1	retest calcium signal, replicate 2
LysD + LysC (retired record)	DRSC08674	59.7	96.6		
LysD + LysC (retired record)	DRSC22743	113	214		
MTF-1	DRSC11217	73.8	82.2	6111	124

The list itself, from the start:
Target gene	DRSC id	calcium signal, replicate 1	calcium signal, replicate 2	retest calcium signal, replicate 1	retest calcium signal, replicate 2
LysD + LysC (retired record)	DRSC08674	59.7	96.6		
LysD + LysC (retired record)	DRSC22743	113	214		
MTF-1	DRSC11217	73.8	82.2	6111	124
MTF-1	DRSC21341	122	123		
Acat1	DRSC17766	128	140		
emp	DRSC04019	115	90.9		
emp	DRSC04683	102	121		
CG15882	DRSC19735	208	98.5		
Srp68	DRSC10475	160	98.4		
SmB	DRSC03437	59.1 (active)	81.2		
CG3702	DRSC00628	135	255		
Nadk1a	DRSC05431	120	147		
Nadk1a	DRSC06963	151	150		
Fer3HCH	DRSC19892	125	104		
CG12320	DRSC14498	252	182		
CG13984	DRSC02316	56 (active)	134		
PK2-R2	DRSC16448	114	187		
CG14200	DRSC19555	73.5 (active)	114		
CG14200	DRSC22979	101	85.9		
Mal-B2	DRSC02417	138	163		
l(2)03659	DRSC07269	132	150		
l(2)03659	DRSC07638	127	159		
spri	DRSC17846	90.2	117		
spri	DRSC17984	101	86.5		
spri	DRSC17985	96.9	83.2		
spri	DRSC17986	74.1	107		
spri	DRSC17988	82.8	119		
spri	DRSC17989	84.5	115		
spri	DRSC22927	125	200		
CG9692	DRSC11091	115	122		
Drep3	DRSC06312	155	166	9614	140
Drep3	DRSC07529	125	141		
Drep3	DRSC22344	99.3	251		
Wdr24	DRSC14151	156	157		
CG13102	DRSC02202	121	115		
mRpS21	DRSC21357	117	121		
janB	DRSC16973	188	127		
Lst	DRSC07146	127	107		
CG10019	DRSC00279	165	98.2		
CG32767	DRSC18386	262	99.5		
Brd7-9	DRSC03017	146	269		
lic	DRSC20347	116	127		
lost	DRSC12234	67.1 (active)	128	152	104
lost	DRSC21987	70.8	117		
SWIP	DRSC19540	93	164		
bel	DRSC16555	148	172		
CG32235	DRSC23257	110	97.6		
Fntb	DRSC15244	135	259		
Epg5	DRSC14778	226	149		
Cyp308a1	DRSC20238	45.8 (active)	80.9		
Uggt	DRSC11315	114	69.6		
Srrm234	DRSC08606	172	85		
CtBP	DRSC16617	87	101		
CG18128	DRSC04304	141	180		
Usp8	DRSC15876	220	309		
CG18754	DRSC15387	88	104		
Mst98Cb	DRSC16750	142	169	6364	153
Mst98Cb	DRSC22495	62.8	169		
Obp50b + Obp50c	DRSC21818	162	81.3		
DENR	DRSC20151	133	93.9		
CG7272	DRSC10795	123	151		
rdx	DRSC14526	85	178		
rdx	DRSC16580	80.9	157		
rdx	DRSC23120	119	166		
Brms1	DRSC19896	95.4	86		
CG33253	DRSC19547	107	108		
CG33253	DRSC20053	170	86.6	138	98
CG31676	DRSC02387	177	108		
CG9799	DRSC16567	103	100		
CG13917	DRSC08386	193	121	71.9	87.8
Pex3	DRSC10731	123	100		
JMJD7	DRSC09703	120	153		
Sas10	DRSC18355	155	119		
del	DRSC03170	143	89.2		
MFS15	DRSC06523	97.7	83.6		
CG12853	DRSC06193	69.6 (active)	57	130	199
CG3434	DRSC10365	115	89.5		
Gbs-70E	DRSC11055	103	150		
VepD	DRSC22318	95.6	233		
LamC	DRSC07453	186	123		
Coop	DRSC06604	145	114		
Larp4B	DRSC08192	69.4	128		
Larp4B	DRSC23201	97.8	157		
